From paper doi:10.1101/2021.11.03.467045
No constants are given. Whether binding was seen depends on the method and setting. In cells and extracts the contact can be indirect. For some assays here: Where a sequence is shown, tags or fusion partners need not be part of it.

What was measured:
[1] = target: T1, HA-tagged ΔRING-TRIM41 (mouse) (UniProt Q5NCC3); experiment: co-IP
T1 sequence: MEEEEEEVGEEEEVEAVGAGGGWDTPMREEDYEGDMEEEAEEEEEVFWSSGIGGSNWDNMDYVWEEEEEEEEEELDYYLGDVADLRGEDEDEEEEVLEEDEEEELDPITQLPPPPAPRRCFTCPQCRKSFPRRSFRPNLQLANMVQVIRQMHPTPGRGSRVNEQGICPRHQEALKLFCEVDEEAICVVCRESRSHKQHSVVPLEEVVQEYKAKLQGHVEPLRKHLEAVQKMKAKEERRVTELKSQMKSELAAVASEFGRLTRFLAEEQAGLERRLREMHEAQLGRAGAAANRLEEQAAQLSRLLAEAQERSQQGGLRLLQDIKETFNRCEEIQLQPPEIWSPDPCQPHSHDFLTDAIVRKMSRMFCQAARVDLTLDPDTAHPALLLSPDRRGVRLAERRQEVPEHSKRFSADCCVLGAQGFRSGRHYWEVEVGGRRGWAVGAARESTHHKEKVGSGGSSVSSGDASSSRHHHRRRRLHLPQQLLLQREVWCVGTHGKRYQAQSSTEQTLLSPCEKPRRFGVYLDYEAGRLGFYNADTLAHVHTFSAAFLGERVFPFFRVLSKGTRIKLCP

[2] = target: T2, tripartite motif-containing 41 (TRIM41) (mouse (endogenous in testis)) (UniProt Q5NCC3); experiment: co-IP
T2 sequence: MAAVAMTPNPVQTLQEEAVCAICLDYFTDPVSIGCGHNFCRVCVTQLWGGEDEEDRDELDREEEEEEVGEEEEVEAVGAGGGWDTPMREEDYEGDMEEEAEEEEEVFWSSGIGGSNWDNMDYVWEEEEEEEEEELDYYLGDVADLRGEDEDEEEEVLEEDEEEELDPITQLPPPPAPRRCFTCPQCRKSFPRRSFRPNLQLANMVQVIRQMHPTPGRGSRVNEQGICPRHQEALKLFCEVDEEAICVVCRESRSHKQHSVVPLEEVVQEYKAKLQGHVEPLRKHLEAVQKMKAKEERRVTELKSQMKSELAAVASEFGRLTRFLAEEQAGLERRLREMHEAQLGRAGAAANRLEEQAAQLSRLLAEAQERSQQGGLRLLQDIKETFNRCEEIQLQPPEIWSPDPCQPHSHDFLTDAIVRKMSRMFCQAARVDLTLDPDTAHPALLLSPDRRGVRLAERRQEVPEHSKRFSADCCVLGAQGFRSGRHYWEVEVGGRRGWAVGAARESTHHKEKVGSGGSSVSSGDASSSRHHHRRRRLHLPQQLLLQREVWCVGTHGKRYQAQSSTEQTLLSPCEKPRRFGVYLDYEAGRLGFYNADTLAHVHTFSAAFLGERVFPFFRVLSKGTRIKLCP

binding [1]: no binding
binding [2]: no binding
B1: synaptonemal complex protein 3 (SYCP3) (protein, UniProt P70281 1-254)
chain: MLRGCGDSDSSPEPLSKHLKMVPGGRKHSGKSGKPPLVDQPKKAFDFEKDDKDLSGSEEDVADEKAPVIDKHGKKRSAGIIEDVGGEVQNMLEKFGADINKALLAKRKRIEMYTKASFKASNQKIEQIWKTQQEEIQKLNNEYSQQFMNVLQQWELDIQKFEEQGEKLSNLFRQQQKIFQQSRIVQSQRMFAMKQIHEQFIKSLEDVEKNNDNLFTGTQSELKKEMAMLQKKVMMETQQQEMANVRKSLQSMLF
